# Test results reported in patent US20260193315A1 (FBD BIOLOGICS, published 2026).
# The chains behind the UniProt entries cited, without tags or fusion partners. Residues count along the entry.
# UniProt Q07011, residues 24-186: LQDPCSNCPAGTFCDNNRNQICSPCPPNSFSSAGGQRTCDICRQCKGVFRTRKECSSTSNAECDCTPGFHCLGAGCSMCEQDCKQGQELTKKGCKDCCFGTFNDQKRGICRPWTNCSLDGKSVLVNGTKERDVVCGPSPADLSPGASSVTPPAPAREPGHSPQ
# These are yes or no findings as the source states them, for the method shown. Some results given as binding are weak or reduced against the parent protein; the word gives no strength.
# B1: 1D2 (ligand)
# 4-1BBL variant: ACPWAVSGARASPGSAASPRLREGPELSPDDPAGLLDLRQGMFAQLVAQNVLLIDGPLSWYEDPGLAGVSLTGGLSYKEDTKELVVAKAGVYYVFFQLELRRVVAGTGSGSVSLALHLQPLRSAAGAAALALTVDLPPASSEARNSAFGFQGRLLHLSAGQRLGVHLHTEARARHALQLTQGATVLGLFRVTPEIPAGLPSPRSE
# notes: also called 4-1BBL variant 1D2 (phagemid clone, bacterial supernatant)
# B2: 4E10 (ligand)
# 4-1BBL variant: ACPWAVSGARASPGSAASPRLREGPELSPDDPAGLLDLRQGMFAQLVAQNVLLIDGPLSWYPDPGLAGVSLTGGLSYKEDTKELVVAKAGVYYVFFQLELRRVVAREGSGSVSLALHLQPLRSAAGAAALALTVDLPPASSEARNSAFGFQGRLLHLSAGQRLGVHLHTEARARHAMQLTQGATVLGLFRVTPEIPAGLPSPRSE
# notes: also called 4-1BBL variant 4E10 (phagemid clone, bacterial supernatant)
# B3: 5D9 (ligand)
# 4-1BBL variant: ACPWAVSGARASPGSAASPRLREGPELSPDDPAGLLDLRQGMFAQLVAQNVLLIDGPLSFYSDPGLAGVSLTGGLSYKEDTKELVVAKAGVYYVFFQLELRRVVAGTGSGSVSLALHLQPLRSAAGAAALALTVDLPPASSEARNSAFGFQGRLLHLSAGQRLGVHLHTEARARHAWQMTQGATVLGLFRVTPEIPAGLPSPRSE
# notes: also called 4-1BBL variant 5D9 (phagemid clone, bacterial supernatant)
# B4: 8B10 (ligand)
# 4-1BBL variant: ACPWAVSGARASPGSAASPRLREGPELSPDDPAGLLDLRQGMFAQLVAQNVLLIDGPLSWYTDPGLAGVSLTGGLSYKEDTKELVVAKAGVYYVFFQLELRRVVAGMGSGSVSLALHLQPLRSAAGAAALALTVDLPPASSEARNSAFGFQGRLLHLSAGQRLGVHLHTEARARHSWQLTQGATVLGLFRVTPEIPAGLPSPRSE
# notes: also called 4-1BBL variant 8B10 (phagemid clone, bacterial supernatant)
# Target: 4-1BB (coated on ELISA plate) (UniProt Q07011)
# Assay: ELISA on coated 4-1BB, class against wild type
row,Binder,binding
1,B1,binds
2,B2,binds
3,B3,binds
4,B4,binds
